Measurements taken from PubChem BioAssay AID1259354 (Paczesny and Yang Labs, IUPUI and University of Michigan, 2018).
Where “and” joins values, the source holds several entries; their conditions need not be identical. Identical values can stand only once. Out of some 78,000 compounds screened, about 1,800 (2.3%) were called active. This list was built around the results that the source calls inconclusive (neither active nor inactive); the mix of calls is not that of the screen. No stated cut-off is given here; in the data, active means inhibition above about 30%; inconclusive means mostly about 10% to 28%; inactive means weaker than that.

By UniProt entry, the sequences of proteins in these tests, tags left out. Where a name states a change or a piece, a line headed by the entry shows the natural chain unless it says otherwise.
UniProt Q01638: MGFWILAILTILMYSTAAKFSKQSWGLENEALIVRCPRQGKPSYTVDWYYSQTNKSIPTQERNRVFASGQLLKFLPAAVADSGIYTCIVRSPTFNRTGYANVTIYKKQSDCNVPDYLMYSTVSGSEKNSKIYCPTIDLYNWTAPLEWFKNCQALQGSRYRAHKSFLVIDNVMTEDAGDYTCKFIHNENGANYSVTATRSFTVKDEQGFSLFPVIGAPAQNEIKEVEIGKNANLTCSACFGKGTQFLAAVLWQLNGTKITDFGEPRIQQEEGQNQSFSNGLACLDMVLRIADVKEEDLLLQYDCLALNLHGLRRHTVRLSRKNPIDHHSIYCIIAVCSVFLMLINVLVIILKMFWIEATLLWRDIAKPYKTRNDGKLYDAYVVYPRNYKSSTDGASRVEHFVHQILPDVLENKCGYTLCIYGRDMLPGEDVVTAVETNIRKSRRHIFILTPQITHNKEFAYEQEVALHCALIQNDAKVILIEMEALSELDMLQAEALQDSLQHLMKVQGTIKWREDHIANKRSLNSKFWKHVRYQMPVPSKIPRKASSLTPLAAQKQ

What follows are compounds tested against Interleukin-1 receptor-like 1 (Homo sapiens) (UniProt Q01638) (assay: blocks human ST2 binding to IL-33, primary screen, biochemical, AlphaLISA (AID 1259354)). Settings: AlphaLISA ST2-Fc/biotin-IL-33 interaction, 1 h; at 17 µM, stronger effect = higher value.

Row | Structure (SMILES) | inhibition
1 | C1=CCC(c2cn(Cc3nccn3Cc3ccccc3)nn2)CC1 (centres undefined) | inconclusive: 13%
2 | CS(=O)(=O)N1CCN(C/C=C/c2ccccc2)CC1 | inconclusive: 12%
3 | C=CCN(Cc1ccc2c(C)cc(=O)oc2c1)Cc1ccco1 | inconclusive: 16%
4 | CCCCOc1ccc(C(=O)Nc2c3c(nn2-c2ccc(OC)cc2)CS(=O)C3)cc1 (centres undefined) | inactive
5 | COC1=CC(=O)OC1(O)C(C)C (centres undefined) | inconclusive: 21%
6 | COc1ccc(/C=C/c2nc(N)nc(-c3ccccc3O)n2)cc1OC | inconclusive: 21%
7 | CC(CCc1ccccc1)NC(=O)CSc1nc(-c2ccco2)nc2cc(=O)[nH]n12 (centres undefined) | inconclusive: 11%
8 | N/C(=N\O)c1cn(Cc2ccccc2Cl)c2ccccc12 | inconclusive: 28%
9 | Cc1cc(Br)ccc1NC(=O)c1cc2ccccc2o1 | inactive
10 | Cc1ccc(S(=O)(=O)Nc2ccccc2CNc2ccccc2)cc1 | inconclusive: 13%
11 | CCC(C)C(=O)OC1CC(C)C=C2C=CC(C)C(CCC(O)CC(O)CC(=O)O)C21 (centres undefined) | inconclusive: 10%
12 | O=C1NN(c2cccc(Cl)c2)C(=O)/C1=C\c1cccn1-c1ccc([N+](=O)[O-])cc1 | active: 59%
13 | CCN1C(=O)N(CCCc2cccnc2)C(=O)C12CCN(C/C=C/c1ccccc1)CC2 | inconclusive: 20%
14 | CCN(CC)C(=O)/C(=C/c1ccc2c(c1)OCO2)NC(=O)c1ccccc1OC | inconclusive: 13%
15 | CC[C@H](C)/C=C(C)/C=C/C1=CC2=CC(=O)[C@]3(C)OC(=O)[C@@H](C(C)=O)[C@@H]3C2=CO1 | inconclusive: 12%
16 | COc1cc(Br)c(/C=C(\C#N)c2nc3ccc(C)cc3[nH]2)cc1OC | inconclusive: 26% and inconclusive: 24%
17 | COc1ccc(C2=NN(C(=O)c3ccc(Br)o3)C(c3ccc(C)cc3)C2)cc1OC (centres undefined) | inactive
18 | O=C(Nc1ccc(Cl)cc1C(F)(F)F)c1cnc2n(c1=O)CCS2 | inconclusive: 15%
19 | COc1ccc2c(=O)c(-c3ccccc3)c(C(F)(F)F)oc2c1 | inactive
20 | O=C(N[C@H]1C[C@@H]2C(=O)N[C@H]3CCN(C(=O)Cc4cccs4)[C@@H]3C(=O)N2C1)C1CCC1 | inactive
21 | Cc1c(O)cc(C(=O)NCC2CCN(C3CCOCC3)C2)cc1O (centres undefined) | inconclusive: 14%
22 | Cc1cc(C(=O)N2CCC(N(C)C)C2)ccc1NC(=O)c1ccco1 (centres undefined) | inconclusive: 16%
23 | c1nc(N2CCC(c3nn[nH]n3)CC2)c2cc[nH]c2n1 | inactive
24 | CC(=O)c1ccc(N2C(=O)c3cccc4c(Cl)ccc(c34)C2=O)cc1 | inactive

Row | Structure (SMILES) | inhibition
25 | Cc1cc(N(C)C)nc(Nc2ccc(NC(=O)C(C)C)cc2)n1 | inconclusive: 13%
26 | CCOCCCNC(=O)CN1C(=O)/C(=C\c2ccc(C(F)(F)F)cc2)Sc2ccccc21 | inconclusive: 21%
27 | O=C(NCCc1c[nH]c2ccccc12)c1cc2nc(-c3ccco3)cc(C(F)(F)Cl)n2n1 | inconclusive: 16%
28 | CC(=O)N(CN1C(=O)c2cccc([N+](=O)[O-])c2C1=O)c1ccc(C)cc1 | inactive
29 | CN(Cc1ccccc1)S(=O)(=O)N1C[C@H]2CC=CC[C@H]2C1 | inconclusive: 11%
30 | O=C(CSc1nccn1Cc1ccccc1)Nc1ccc(Cl)cc1 | inconclusive: 25%
31 | Cc1ccc(-c2nc3cnccn3c2NC2CCCC2)cc1 | inconclusive: 10%
32 | COc1ccccc1-n1cc(CN2CCC(CNC(C)=O)C2)cn1 (centres undefined) | inconclusive: 12%
33 | C=C(C)CN(CC)C(=O)[C@@H]1C[C@H](NC(=O)C2CCCCC2)CN1C | inconclusive: 14%
34 | COc1cccc(CC(C2CCN(C(=O)c3ccsc3)CC2)N(C)C(=O)CCSC)c1 (centres undefined) | inconclusive: 12%
35 | CN(C)Cc1nnc(C(=O)N2CCC(CCCc3ccccc3)CC2)o1 | inactive
36 | Cc1ccc(-c2csc(/C(C#N)=C/c3ccc([N+](=O)[O-])cc3)n2)cc1 | inconclusive: 11%
37 | Cc1ccc(/C=C2\N=C(c3ccc(C)c([N+](=O)[O-])c3)OC2=O)o1 | inconclusive: 20%
38 | CN(C)c1nc2ccc(OCCN3CCCCC3)cc2s1 | inconclusive: 16%
39 | CCc1ccc(C(=O)CSc2nnc(-c3cccc(Br)c3)o2)cc1 | inconclusive: 15%
40 | O=C(c1coc(COc2ccc(F)cc2)n1)N1CCC(c2ccc(F)cc2)C1 (centres undefined) | inconclusive: 11%
41 | Cc1cn(CCNS(=O)(=O)NCc2ccccc2)nn1 | inactive
42 | O=C(Nc1ccc(F)c(F)c1)c1c[nH]c(=O)n(-c2ccccc2)c1=O | inconclusive: 16%
43 | CCc1ccc(N2N=C(C)/C(=C/c3ccc(N(C)C)c([N+](=O)[O-])c3)C2=O)cc1 | inconclusive: 14%
44 | CC(C)(C)Cc1[nH]cnc1-c1ccccc1 | inconclusive: 11%
45 | O=C(c1cccn2c(=O)c3cc4ccccc4cc3nc12)N1CCOCC1 | inconclusive: 20%
46 | COc1ccc(S(=O)(=O)Nc2ccc(S(=O)(=O)Nc3ccc(F)cc3)cc2)cc1 | inconclusive: 10%
47 | O=C(c1cc(=O)c2ccccc2o1)N1CCc2c([nH]c3ccccc23)C1c1ccccc1F (centres undefined) | inconclusive: 11%
48 | CCn1cc(CN2CCC(CNC(=O)NC3CCCC3)C2)c(C)n1 (centres undefined) | inconclusive: 15%

Row | Structure (SMILES) | inhibition
49 | CC1=C(C(=O)Nc2cccnc2)C(c2ccccc2F)n2ncnc2N1 (centres undefined) | inactive
50 | Cn1c(=O)c2c(SCc3ccccc3F)nc(-c3ccco3)nc2n(C)c1=O | inconclusive: 11%
51 | Cn1c(=N)n(CC(=O)NC2C3CC4CC(C3)CC2C4)c2ccccc21 (centres undefined) | inactive
52 | CCCCC1=NC2(CCN(C(=O)C(NC(C)=O)C(C)C)CC2)C(=O)N1 (centres undefined) | inconclusive: 10%
53 | O=C(c1ccc2nc3sc4c(c3c(=O)n2c1)CCCC4)N1CCN(c2ccccc2F)CC1 | inactive
54 | COc1cc(C)nc(N(C)S(=O)(=O)c2ccccc2Cl)n1 | inconclusive: 19%
55 | CNc1nc2c(c(=O)[nH]c(=O)n2C)n1Cc1ccc(F)cc1 | inactive
56 | c1ccc(COC2CCCN(Cc3ccsc3)C2)nc1 (centres undefined) | inconclusive: 12%
57 | Cc1nn(C)c(C)c1C(C)NC(=O)c1cc(-n2cccn2)ccc1Cl (centres undefined) | inconclusive: 10%
58 | O=C(NCCc1ccccc1)C(Cl)Cl | inactive
59 | CC1=NN(c2cccc(Br)c2)C(=O)/C1=C\c1ccc(N(C)C)cc1 | inactive
60 | COc1cccc(C2N(c3nccs3)C(=O)C3CCCN32)c1 (centres undefined) | inconclusive: 14%
61 | COc1cc(C(C)=O)ccc1OC(=O)COc1cc(C)ccc1C(C)C | inactive
62 | CN1CCCC2(CCN(C(=O)CCCc3ccc(F)cc3)C2)C1=O (centres undefined) | inconclusive: 17%
63 | C/C=C/c1cnc(-c2cccnc2)nc1C1CCN(C(=O)c2ccc(Cl)cc2)CC1 | inconclusive: 12%
64 | COc1cccc(CNc2ccc3c(c2)ncn3C2CCCCC2)c1OC | inconclusive: 25%
65 | Nc1cc(N)nc(SCC(=O)Nc2ccc(Br)cn2)n1 | inconclusive: 15%
66 | COC(=O)C1CCN(C(=O)CC[C@H]2CNC(=O)[C@@H]3[C@@H](CCN3CC(C)(C)C)N2C)CC1 | inactive
67 | Cc1ccc(-c2ccnc(NCc3c(C)ncc4c3CCNC4)n2)c(C)n1 | inactive
68 | c1ccc(OCCN2CCCCC2)cc1 | inactive
69 | CCCn1c(CCCNC(=O)COC)nc2ccccc21 | inconclusive: 15%
70 | O=C(NCc1ccc2[nH]c3c(c2c1)CCCCCC3)c1ccn[nH]1 | inconclusive: 16%
71 | CCc1nc(C)c(C(=O)NCCOc2cccc3cccnc23)o1 | inactive
72 | O=C(Nc1ccc([N+](=O)[O-])cc1)c1ccc(-c2nnc(-c3ccccc3)o2)cc1 | inconclusive: 27%

Row | Structure (SMILES) | inhibition
73 | COc1ccc(Nc2nc(Cl)nc(NCc3cccnc3)n2)cc1 | inconclusive: 20%
74 | O=C1C2[C@H](C(=O)N1c1ccccc1)C1c3ccccc3C2(C(=O)O)c2ccccc21 (some centres undefined) | inconclusive: 17%
75 | CCc1ccc(-n2c(CN3CCN(C(=O)Nc4c(C)cccc4C)CC3)nc3cccnc32)cc1 | inactive
76 | COc1ccc(-c2ccccc2C(N)=O)c2ccc(C)nc12 | inactive
77 | CNCC(=O)NC(C)c1cnn(-c2ccccc2OC)c1 (centres undefined) | inactive
78 | COc1ccccc1CC(=O)Nc1ccccc1C(C)(C)C | inconclusive: 16%
79 | CCc1ccccc1NS(=O)(=O)c1ccc(NC(C)=O)cc1 | inactive
80 | Cc1ccc(OCc2cc(C(=O)NCc3ccnc4ccccc34)no2)cn1 | inconclusive: 15%
81 | CCN(CC)CCNC(=O)CN1C(=O)CSc2ccc(S(=O)(=O)N3CCCCC3)cc21 | inconclusive: 10%
82 | COc1ccc(C2C(=C(O)c3ccccc3)C(=O)C(=O)N2c2cccc(Cl)c2)c(OC)c1 (centres undefined) | inconclusive: 19%
83 | CCNC(=O)N1Cc2[nH]cnc2C[C@H]1C(=O)NCc1ccccc1 | inconclusive: 13%
84 | Cn1ccnc1-c1nccn1CCc1cccc(F)c1 | inconclusive: 26%
85 | COC(=O)[C@@H](Cc1cccnc1)NC(=O)[C@H]1CN(C(C)=O)CCN1S(C)(=O)=O | inactive
86 | COc1ccc(NC2(C(=O)N3CCOC(CN)C3)CCCC2)cc1 (centres undefined) | inactive
87 | O=C(CN1C(=O)/C(=C\c2ccc(C(F)(F)F)cc2)Sc2ccccc21)NCC1CCCO1 (centres undefined) | active: 30%
88 | O=C(Nc1ccc(Cl)cc1)c1cnc2n(c1=O)CCS2 | inconclusive: 14%
89 | Cc1ccc(C(=O)c2ccc(Cl)cc2)cc1[N+](=O)[O-] | active: 42%
90 | Nc1nc(-c2ccc(-c3ccccc3CO)cc2)cs1 | inconclusive: 11%
91 | CCN(CC)c1ncccc1CNC(=O)CN1CC(=O)NC1=O | inactive
92 | CCCc1ccc(S(=O)(=O)N2CCN(c3cc(-c4cccc(F)c4)ncn3)CC2)cc1 | inactive
93 | Cc1cc(C)nc(SCC(O)COc2ccc(Cl)cc2)n1 (centres undefined) | inactive
94 | COc1cccc(C2CC(c3ccc(Cl)cc3Cl)n3nc(N)nc3N2)c1 (centres undefined) | inconclusive: 11%
